Experimental data from patent publication US20200277377A1.
No constants are given. Whether binding was seen depends on the method and setting. Some results given as binding are weak or reduced against the parent protein; the word gives no strength.

The chains behind the UniProt entries cited, without tags or fusion partners. Where a name states a change or a piece, a line headed by the entry shows the natural chain unless it says otherwise. A line that says so, or that is headed by a name, gives the form on record, which may keep a tag or linker. Residues count along the entry.
UniProt P16410: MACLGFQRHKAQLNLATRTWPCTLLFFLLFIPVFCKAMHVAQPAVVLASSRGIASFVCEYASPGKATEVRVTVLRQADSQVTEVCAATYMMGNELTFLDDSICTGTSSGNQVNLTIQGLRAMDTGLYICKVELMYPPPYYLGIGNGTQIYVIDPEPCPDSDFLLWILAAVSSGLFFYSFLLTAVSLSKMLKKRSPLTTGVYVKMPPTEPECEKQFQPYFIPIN
full length human CTLA-4 on cells: residues 36-223 of P16410
human CTLA-4.ECD.hFc: residues 36-161 of P16410
human CTLA-4.ECD-6×His (P16410, form named): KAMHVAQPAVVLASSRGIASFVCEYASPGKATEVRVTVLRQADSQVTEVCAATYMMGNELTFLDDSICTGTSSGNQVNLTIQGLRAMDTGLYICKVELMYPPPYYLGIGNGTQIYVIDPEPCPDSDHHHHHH
hCTLA4_ECD.His (N113 Q) (P16410, form named): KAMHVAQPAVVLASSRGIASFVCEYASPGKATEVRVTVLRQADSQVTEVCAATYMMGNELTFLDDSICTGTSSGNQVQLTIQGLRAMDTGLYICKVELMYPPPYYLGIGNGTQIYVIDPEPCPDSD
Murine CTLA-4.ECD-6×His (P09793, form named): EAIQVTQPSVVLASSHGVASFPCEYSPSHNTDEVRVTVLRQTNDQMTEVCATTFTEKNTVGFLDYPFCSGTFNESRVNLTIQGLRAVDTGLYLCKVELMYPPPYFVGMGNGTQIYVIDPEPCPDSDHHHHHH

How the values were obtained:
[1] = biological target: human CTLA-4.ECD-6×His (human) (UniProt P16410); assay: SPR, antibody captured on anti-human Fc, human CTLA-4 ECD injected at several concentrations
[2] = biological target: biotinylated human CTLA-4 (Example 3 FACS competition) (human) (UniProt P16410); assay: competition FACS: antibody mixed with biotinylated human CTLA-4, added to CD80-expressing cells (panel title W316-CHO-K1.hPro1.L1), bound CTLA-4 detected with streptavidin-PE [A]
[3] = biological target: full length human CTLA-4 on cells (human) (UniProt P16410); assay: FACS on CTLA-4-expressing cell line
[4] = biological target: human CTLA-4 (Example 3 ELISAs, construct not stated) (human) (UniProt P16410); assay: ELISA, antibody titrated on human CTLA-4, OD450
[5] = biological target: human CTLA-4 (Example 3 ELISAs, construct not stated) (human) (UniProt P16410); assay: ELISA
[6] = biological target: T1, monkey CTLA-4 (Example 3 ELISA, construct not stated) (cynomolgus monkey) (UniProt G7PL88); assay: ELISA
T1 sequence: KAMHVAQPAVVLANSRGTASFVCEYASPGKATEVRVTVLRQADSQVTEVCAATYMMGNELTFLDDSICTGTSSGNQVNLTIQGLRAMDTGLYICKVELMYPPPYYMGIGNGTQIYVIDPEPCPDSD

[7] = biological target: T1, monkey CTLA-4 (Example 3 ELISA, construct not stated) (cynomolgus monkey); assay: ELISA, antibody titrated on cyno CTLA-4, OD450
[8] = biological target: human CTLA-4.ECD-6×His (human) (UniProt P16410); assay: SPR, antibody captured on immobilized goat anti-human Fc, human CTLA-4 ECD injected
[9] = biological target: biotinylated human CTLA-4 (Example 3 FACS competition) (human) (UniProt P16410); assay: competition FACS: antibody mixed with biotinylated human CTLA-4, added to CD86-expressing cells (panel title W316-CHO-K1.hPro1.L2), bound CTLA-4 detected with streptavidin-PE [B]
[10] = biological target: human CTLA-4 (Example 3 ELISAs, construct not stated) (human) (UniProt P16410); assay: competition ELISA: coated human CTLA-4, antibody mixed with biotinylated CD80, bound ligand detected with streptavidin-HRP [A) CD80]
[11] = biological target: full length human CTLA-4 on cells (human) (UniProt P16410); assay: FACS on a cell line expressing human CTLA-4, MFI
[12] = biological target: human CTLA-4 (Example 3 ELISAs, construct not stated) (human) (UniProt P16410); assay: competition ELISA: coated human CTLA-4, antibody mixed with biotinylated CD86, bound ligand detected with streptavidin-HRP [B) CD86]
[13] = biological target: hCTLA-4.ECD.hFc-Biotin (human) (UniProt P16410); assay: competition FACS: antibody mixed with hCTLA-4.ECD.hFc-Biotin, added to ligand-expressing CHO cells, streptavidin-PE; lower panel, not labelled on the sheet, taken as the CD86 cells from the order of the text [lower panel]
[14] = biological target: CTLA-4.ECD (antigen panel of the specificity ELISA) (Homo sapiens (Human)) (UniProt P16410); assay: specificity ELISA on coated antigens, antibody at 10 ug/mL, OD
[15] = biological target: hCTLA4_ECD.His (N113 Q) (human) (UniProt P16410); assay: capture ELISA: W3162-1.146.19-z12 captured on anti-human Fc, hCTLA4-His mutein supernatant titrated (ng/ml), HRP-anti-His [B]
[16] = biological target: human CTLA-4.ECD-6×His (human) (UniProt P16410); assay: capture ELISA, antibody on anti-human Fc, hCTLA4-His, anti-His-HRP
[17] = biological target: Murine CTLA-4.ECD-6×His (mouse) (UniProt P09793); assay: ELISA, antibody titrated on coated mouse CTLA-4.ECD-6xHis, OD450 [C) Murine CTLA-4]
[18] = biological target: full length human CTLA-4 on cells (human) (UniProt P16410); assay: FACS on 293F cells expressing human CTLA-4, PE anti-human IgG, MFI
[19] = biological target: full length human CTLA-4 on cells (human) (UniProt P16410); assay: FACS affinity test on cells expressing human CTLA-4, B/F against bound IgG
[20] = biological target: hCTLA4_ECD.His (N113 Q) (human) (UniProt P16410); assay: capture ELISA with glycosylation-site mutein
[21] = biological target: human CTLA-4.ECD.hFc (human) (UniProt P16410); assay: competition ELISA: coated human CTLA-4.ECD.hFc, antibody pre-mixed with CD86-6xHis, bound ligand detected through anti-His [B) CD86]
[22] = biological target: human CTLA-4.ECD-6×His (human) (UniProt P16410); assay: capture ELISA: W3162-1.146.19-z12 captured on anti-human Fc, hCTLA4-His supernatant titrated (ng/ml), HRP-anti-His [B]
[23] = biological target: hCTLA-4.ECD.hFc-Biotin (human) (UniProt P16410); assay: competition FACS: antibody mixed with hCTLA-4.ECD.hFc-Biotin, added to ligand-expressing CHO cells, streptavidin-PE; upper panel, not labelled on the sheet, taken as the CD80 cells from the order of the text [upper panel]
[24] = biological target: Murine CTLA-4.ECD-6×His (mouse) (UniProt P09793); assay: SPR
[25] = biological target: human CTLA-4.ECD-6×His (human) (UniProt P16410); assay: ELISA, antibody titrated on coated human CTLA-4.ECD-6xHis, OD450 [A) Human CTLA-4]
[26] = biological target: human CTLA-4.ECD.hFc (human) (UniProt P16410); assay: competition ELISA: coated human CTLA-4.ECD.hFc, antibody pre-mixed with CD80-6xHis, bound ligand detected through anti-His [A) CD80]
[27] = biological target: CTLA-4.ECD (antigen panel of the specificity ELISA) (Homo sapiens (Human)) (UniProt P16410); assay: ELISA, coated antigen 2 µg/mL, antibody 10 µg/mL

Measured: binding

B1: W3162-1.101.2 xAb.IgG1 (antibody, V domains shown)
VH: EEQLVESGGGLVQPGKSLKLSCSASGFTFRSSAMHWIRQPPGKGLDWVAFISSGGDTAYADAVKGRFIVSRDNAENTLFLQLNSLKSEDTAIYYCVRMERIPTWGQGVMVTVSS
VL: DIVLTQSPVLAVSLGQRATISCRASQSVSISSINLIHWYQQRPGQQPKLLIYRTSNLASGIPARFSGSGSGTDFTLSIDPVQADDVADYYCQQSRESPLTFGSGTKLEIK
binds: [1] | [2] | [3] | [4] | [5] | [6] | [7] | [8] | [9] | [10] | [11] | [12]

B2: W3162-1.146.19-z12-uAb.IgG1K (antibody, V domains shown)
VH: QVQLQESGPGLVKPSETLSLTCSVTYHTITSGYDWTWIRKPPGKGMEWIGYISYSGNTNYNPSLKSRVTISRDTSKNQFFLKLSSVTAADTAVYYCASMMVPHYYVMDAWGQGTLVTVSS
VL: DIVMTQTPLSLSVTPGQPASISCRSSQSLLNSDGNTYLYWYLQKPGQSPQLLIYLVSKLGSGVPNRFSGSGSGTDFTLKISRVEAEDVGVYYCVQGTHDPWTFGGGTKVEIK
not listed: [1] | [2] | [3] | [4] | [5] | [6] | [7] | [8] | [9] | [10] | [11] | [12]
binds: all other assays above

B3: W3162-1.145.10 xAb.IgG1 (antibody, V domains shown)
VH: EVQLVESGGGLVQPGRSLKLSCAASDLTFSNYDMAWVRQTPTKGLEWVASISPNGGNTYYRDSVKGRFTVSRDNAKNSLYLQMDSLRSEDTATYYCARHLWFAYWGQGTLVTVSS
VL: DIQMTQSPSSMSASLGDRVTISCQASQDIGSNLIWFQQKPGKSPRPMIYYATHLADGVPSRFSGSRSGSDYSLTISSLESEDVADYHCLQYKQYPRTFGGGTKLELK
binds: [6] | [7]

B4: W3162-1.146.19 xAb.IgG1 (antibody, V domains shown)
VH: EVQLQESGPGLVKPSQSLSLTCSVTYHTITSGYDWTWIRKFPGNQMEWMGYISYSGNTNYNPSLKSRISITRDTSKNQFFLHLNSVTSEDTATYYCASMMVPHYYVMDAWGQGASVTVSS
VL: DVVLTQTPPTSSATIGQSVSISCRSSQSLLNSDGNTYLYWYLQRPSQSPQLLIYLVSKLGSGVPNRFSGSGSGTDFTLKISGVEAEDLGLYYCVQGTHDPWTFGGGTKLELK
binds: [6] | [7]

B5: W3162-1.154.8 xAb.IgG1 (antibody, V domains shown)
VH: EVQLQQSGPEAGRPGSSVKISCKASGYTFTNYFMNWVKQSPGQGLEWIGRVDPENGRADYAEKFKKKATLTADTTSNTAYIHLSSLTSEDTATYFCARRAMDNYGFAYWGQGTLVTVSS
VL: EIMLTQSPTIMAASLGEKITITCSANSSLSYMYWFQQKSGASPKLWVHGTSNLASGVPDRFSGSGSGTSYYLTINTMEAEDAATYFCHHWSNTQWTFGGGTKLELK
binds: [6] | [7]

B6: W3162_1.154.8-z35-uAb.IgG1K (antibody, V domains shown)
VH: QVQLVQSGAEVKKPGSSVKVSCKASGYTFTNYFMNWVRQAPGQGLEWMGRVDPEQGRADYAEKFKKRVTITADKSTSTAYMELSSLRSEDTAVYYCARRAMDNYGFAYWGQGTLVTVSS
VL: EIVLTQSPDFQSVTPKEKVTITCSANSALSYMYWYQQKPDQSPKLWVHGTSNLASGVPSRFSGSGSGTDFTLTINSLEAEDAATYYCHHWSNTQWTFGGGTKVEIK
binds: [14] | [27]
